These are literature values, as cited in PMC2819033 (Journal of medicinal chemistry, 2009).

The data set relates to MCF-7 (breast cancer) cells. The following applies: read-out: IC50 MCF-7; crystal violet; cited from earlier work.

Regarding `N.N.[Cl][Pt][Cl]` [cisplatin], the half-maximal inhibitory concentration (IC50) was 1380 ± 290 nM.
